Data taken from the supplement of paper PMC10849652.
This is one part of the list.

Sequences of proteins named here, by UniProt entry; tags and fusion partners are left off. A change or cut given only in a name is not applied to a line headed by its entry.
UniProt Q75N03: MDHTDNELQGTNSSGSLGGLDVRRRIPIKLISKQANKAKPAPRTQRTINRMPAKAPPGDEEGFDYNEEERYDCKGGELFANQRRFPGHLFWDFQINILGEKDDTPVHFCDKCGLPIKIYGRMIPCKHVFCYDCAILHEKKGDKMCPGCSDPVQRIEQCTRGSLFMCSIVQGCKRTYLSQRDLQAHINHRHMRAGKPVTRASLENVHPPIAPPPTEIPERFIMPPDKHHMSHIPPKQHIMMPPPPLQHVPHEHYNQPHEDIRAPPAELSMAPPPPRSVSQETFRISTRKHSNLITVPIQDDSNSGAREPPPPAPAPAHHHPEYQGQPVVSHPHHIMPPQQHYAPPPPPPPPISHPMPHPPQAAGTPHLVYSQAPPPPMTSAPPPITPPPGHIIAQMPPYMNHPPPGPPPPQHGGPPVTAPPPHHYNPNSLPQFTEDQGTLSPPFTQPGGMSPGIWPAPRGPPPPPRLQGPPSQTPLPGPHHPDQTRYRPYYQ
UniProt P19397: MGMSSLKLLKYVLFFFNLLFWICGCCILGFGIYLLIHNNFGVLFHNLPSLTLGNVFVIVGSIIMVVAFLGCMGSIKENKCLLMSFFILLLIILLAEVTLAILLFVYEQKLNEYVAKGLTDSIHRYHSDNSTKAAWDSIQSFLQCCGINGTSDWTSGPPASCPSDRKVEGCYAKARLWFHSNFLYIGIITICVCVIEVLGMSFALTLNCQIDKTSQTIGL
UniProt Q13951, whole entry, looked up: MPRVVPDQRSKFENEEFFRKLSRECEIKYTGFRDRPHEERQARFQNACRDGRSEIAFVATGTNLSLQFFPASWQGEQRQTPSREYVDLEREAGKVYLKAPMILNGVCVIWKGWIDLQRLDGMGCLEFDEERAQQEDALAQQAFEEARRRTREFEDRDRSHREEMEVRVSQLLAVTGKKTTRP
UniProt Q15834: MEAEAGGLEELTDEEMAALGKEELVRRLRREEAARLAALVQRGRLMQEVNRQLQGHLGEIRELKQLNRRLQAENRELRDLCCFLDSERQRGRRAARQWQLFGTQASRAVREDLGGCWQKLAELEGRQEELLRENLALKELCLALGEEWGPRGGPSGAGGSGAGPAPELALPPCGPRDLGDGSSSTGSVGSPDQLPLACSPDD
UniProt Q92526, whole entry, looked up: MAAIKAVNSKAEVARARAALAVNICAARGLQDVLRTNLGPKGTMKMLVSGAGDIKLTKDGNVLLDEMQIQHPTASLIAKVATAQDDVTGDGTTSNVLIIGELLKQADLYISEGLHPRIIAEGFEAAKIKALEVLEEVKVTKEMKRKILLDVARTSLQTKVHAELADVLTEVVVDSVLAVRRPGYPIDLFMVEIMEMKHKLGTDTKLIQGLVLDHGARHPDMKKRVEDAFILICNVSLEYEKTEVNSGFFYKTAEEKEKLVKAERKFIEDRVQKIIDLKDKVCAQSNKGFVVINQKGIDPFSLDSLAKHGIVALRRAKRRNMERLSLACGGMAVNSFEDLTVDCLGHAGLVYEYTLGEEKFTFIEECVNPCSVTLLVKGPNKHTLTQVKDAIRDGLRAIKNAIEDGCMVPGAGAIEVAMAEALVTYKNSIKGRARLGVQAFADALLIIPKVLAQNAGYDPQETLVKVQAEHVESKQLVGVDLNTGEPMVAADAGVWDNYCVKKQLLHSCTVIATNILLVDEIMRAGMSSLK
UniProt Q96JN2: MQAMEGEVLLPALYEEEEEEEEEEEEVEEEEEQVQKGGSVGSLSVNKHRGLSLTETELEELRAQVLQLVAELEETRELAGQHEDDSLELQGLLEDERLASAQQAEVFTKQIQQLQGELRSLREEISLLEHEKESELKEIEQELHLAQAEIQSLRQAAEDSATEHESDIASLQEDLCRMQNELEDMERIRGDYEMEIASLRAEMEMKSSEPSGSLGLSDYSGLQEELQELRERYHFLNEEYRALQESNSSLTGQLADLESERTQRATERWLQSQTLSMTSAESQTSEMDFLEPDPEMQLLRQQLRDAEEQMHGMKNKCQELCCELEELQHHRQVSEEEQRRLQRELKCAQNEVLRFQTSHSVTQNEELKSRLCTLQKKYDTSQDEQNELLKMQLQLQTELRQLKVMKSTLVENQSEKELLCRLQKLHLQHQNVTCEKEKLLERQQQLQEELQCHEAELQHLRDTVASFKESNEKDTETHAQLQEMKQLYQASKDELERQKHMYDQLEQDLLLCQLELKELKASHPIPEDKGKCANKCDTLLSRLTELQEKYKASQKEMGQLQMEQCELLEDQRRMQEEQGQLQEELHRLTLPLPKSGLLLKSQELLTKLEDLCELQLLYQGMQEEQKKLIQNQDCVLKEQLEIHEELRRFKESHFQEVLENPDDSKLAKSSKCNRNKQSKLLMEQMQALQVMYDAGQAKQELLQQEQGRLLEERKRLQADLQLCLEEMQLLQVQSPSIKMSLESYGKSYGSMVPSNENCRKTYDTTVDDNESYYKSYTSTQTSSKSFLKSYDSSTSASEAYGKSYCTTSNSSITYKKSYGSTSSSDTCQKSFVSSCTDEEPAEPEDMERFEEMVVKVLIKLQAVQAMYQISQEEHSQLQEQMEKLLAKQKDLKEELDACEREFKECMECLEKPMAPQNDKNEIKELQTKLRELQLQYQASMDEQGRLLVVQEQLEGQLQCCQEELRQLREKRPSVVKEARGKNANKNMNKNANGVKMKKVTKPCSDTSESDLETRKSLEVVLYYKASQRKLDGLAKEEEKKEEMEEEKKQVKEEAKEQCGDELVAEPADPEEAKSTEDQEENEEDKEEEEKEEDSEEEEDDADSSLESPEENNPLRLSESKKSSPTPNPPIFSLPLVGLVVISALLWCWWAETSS
UniProt P55210: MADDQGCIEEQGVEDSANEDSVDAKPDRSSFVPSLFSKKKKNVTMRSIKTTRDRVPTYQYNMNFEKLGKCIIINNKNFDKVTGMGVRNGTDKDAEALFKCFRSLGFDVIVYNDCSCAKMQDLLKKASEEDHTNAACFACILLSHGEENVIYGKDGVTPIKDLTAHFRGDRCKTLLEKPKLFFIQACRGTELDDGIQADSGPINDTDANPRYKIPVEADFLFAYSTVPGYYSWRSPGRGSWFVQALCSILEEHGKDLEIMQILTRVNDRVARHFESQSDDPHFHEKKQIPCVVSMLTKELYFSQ
UniProt A6NKD9: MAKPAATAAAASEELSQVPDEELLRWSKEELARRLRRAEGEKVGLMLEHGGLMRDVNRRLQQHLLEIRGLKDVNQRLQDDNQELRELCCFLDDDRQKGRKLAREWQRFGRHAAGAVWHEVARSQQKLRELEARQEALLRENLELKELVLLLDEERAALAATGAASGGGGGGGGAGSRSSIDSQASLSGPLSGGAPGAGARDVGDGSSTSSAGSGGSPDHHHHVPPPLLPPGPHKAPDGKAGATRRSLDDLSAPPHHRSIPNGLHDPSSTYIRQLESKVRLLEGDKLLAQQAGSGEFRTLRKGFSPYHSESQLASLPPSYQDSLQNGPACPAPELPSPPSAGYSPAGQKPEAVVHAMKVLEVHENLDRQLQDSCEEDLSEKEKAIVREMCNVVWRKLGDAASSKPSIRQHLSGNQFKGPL
UniProt P30281: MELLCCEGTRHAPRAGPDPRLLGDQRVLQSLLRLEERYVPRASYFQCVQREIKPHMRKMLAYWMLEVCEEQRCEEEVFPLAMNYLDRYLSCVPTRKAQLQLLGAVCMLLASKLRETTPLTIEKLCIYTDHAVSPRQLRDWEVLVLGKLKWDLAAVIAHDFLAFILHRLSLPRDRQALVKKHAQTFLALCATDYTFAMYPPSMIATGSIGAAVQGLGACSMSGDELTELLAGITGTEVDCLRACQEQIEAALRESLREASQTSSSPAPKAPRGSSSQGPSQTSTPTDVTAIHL
UniProt Q5ZPR3: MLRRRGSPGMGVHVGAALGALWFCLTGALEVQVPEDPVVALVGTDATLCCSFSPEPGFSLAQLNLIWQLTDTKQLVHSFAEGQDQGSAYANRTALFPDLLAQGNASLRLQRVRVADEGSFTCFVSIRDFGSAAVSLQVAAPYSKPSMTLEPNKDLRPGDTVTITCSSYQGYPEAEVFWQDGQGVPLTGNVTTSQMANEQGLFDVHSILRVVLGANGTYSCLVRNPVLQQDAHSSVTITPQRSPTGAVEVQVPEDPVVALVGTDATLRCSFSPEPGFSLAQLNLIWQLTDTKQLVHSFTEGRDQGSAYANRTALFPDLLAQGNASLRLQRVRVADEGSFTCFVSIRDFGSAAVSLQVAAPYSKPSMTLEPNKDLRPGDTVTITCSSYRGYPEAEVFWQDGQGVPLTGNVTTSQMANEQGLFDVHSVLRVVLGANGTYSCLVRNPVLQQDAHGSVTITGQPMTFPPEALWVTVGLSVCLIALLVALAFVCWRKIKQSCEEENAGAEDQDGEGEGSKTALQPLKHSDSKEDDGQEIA
UniProt Q14781, whole entry, looked up: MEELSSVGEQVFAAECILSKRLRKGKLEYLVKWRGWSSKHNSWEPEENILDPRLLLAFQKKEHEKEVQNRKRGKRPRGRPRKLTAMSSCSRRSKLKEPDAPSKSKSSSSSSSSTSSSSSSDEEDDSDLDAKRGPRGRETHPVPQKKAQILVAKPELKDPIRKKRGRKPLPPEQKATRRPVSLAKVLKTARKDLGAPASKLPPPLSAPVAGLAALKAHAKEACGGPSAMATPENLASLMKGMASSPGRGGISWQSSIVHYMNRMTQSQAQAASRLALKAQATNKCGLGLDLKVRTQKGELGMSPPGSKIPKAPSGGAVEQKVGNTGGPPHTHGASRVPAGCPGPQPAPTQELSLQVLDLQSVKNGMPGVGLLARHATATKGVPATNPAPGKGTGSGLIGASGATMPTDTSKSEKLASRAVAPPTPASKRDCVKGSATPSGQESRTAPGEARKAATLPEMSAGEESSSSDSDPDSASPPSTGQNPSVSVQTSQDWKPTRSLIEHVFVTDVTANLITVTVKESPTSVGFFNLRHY
UniProt Q9P0B6: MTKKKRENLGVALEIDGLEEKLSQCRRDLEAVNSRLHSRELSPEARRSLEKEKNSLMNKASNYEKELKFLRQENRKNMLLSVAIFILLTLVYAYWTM
UniProt Q92851: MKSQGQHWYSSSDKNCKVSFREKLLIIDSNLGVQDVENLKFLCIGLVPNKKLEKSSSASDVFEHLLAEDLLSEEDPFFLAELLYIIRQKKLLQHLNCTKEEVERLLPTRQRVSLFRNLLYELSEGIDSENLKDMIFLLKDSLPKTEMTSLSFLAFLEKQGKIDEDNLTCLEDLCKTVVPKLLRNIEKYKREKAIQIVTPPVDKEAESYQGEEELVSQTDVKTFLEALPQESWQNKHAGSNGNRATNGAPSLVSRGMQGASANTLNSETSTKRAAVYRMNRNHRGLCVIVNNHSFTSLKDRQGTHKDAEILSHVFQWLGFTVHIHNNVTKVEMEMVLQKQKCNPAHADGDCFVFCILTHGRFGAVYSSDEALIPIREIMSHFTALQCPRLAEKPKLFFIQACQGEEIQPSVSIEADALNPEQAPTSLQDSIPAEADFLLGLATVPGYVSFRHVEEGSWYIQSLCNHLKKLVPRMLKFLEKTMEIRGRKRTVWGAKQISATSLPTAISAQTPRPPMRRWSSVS
UniProt Q96M89: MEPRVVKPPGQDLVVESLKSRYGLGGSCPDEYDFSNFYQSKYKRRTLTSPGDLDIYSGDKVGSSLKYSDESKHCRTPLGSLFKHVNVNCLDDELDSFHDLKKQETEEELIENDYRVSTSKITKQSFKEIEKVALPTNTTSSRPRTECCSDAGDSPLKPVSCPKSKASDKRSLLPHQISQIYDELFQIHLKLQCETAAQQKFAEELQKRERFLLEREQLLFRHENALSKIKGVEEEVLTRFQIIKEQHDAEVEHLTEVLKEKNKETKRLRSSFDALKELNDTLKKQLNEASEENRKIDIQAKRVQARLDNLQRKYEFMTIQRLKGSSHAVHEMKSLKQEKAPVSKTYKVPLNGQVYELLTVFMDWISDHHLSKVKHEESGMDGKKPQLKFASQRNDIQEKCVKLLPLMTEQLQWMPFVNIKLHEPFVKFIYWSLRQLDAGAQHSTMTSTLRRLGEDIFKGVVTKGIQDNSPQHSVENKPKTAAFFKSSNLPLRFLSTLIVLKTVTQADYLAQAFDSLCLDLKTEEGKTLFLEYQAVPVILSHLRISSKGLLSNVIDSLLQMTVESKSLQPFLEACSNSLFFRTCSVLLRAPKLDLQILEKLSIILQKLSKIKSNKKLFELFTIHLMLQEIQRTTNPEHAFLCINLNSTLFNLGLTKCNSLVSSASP
UniProt P40259: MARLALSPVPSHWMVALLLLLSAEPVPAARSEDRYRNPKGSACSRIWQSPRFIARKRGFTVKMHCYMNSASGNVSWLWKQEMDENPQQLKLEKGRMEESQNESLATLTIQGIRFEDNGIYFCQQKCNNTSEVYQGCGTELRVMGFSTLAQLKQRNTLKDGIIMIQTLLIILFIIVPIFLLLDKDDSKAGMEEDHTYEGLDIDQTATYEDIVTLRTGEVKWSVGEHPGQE

Key:
Assay in all cases: log2 fold change, soluble protein after heating vs DMSO (PISA); higher = thermal stabilisation; K562 lysate, 10 uM; active = over 0.2 and 3.5 SD of the protein, either way, in both replicates (recomputed)
vemurafenib = compound: CCCS(=O)(=O)Nc1ccc(F)c(C(=O)c2c[nH]c3ncc(-c4ccc(Cl)cc4)cc23)c1F [vemurafenib]
Summary of the method: (§1)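 To prepare the extract, K562 pellets were dounce-homogenised in PBS pH 7.4 with 1 mM MgCl2, giving crude material at 1 mg/mL protein. This was treated with 10 μM compound for 30 min, then heated in aliquots for 3 min over 48°C-58°C before pooling and addition of NP-40 to 0.5% at 4°C. Centrifugation at 21,000xg for 90 min left soluble protein in the supernatant, which TMTpro 16plex LC-MS/MS quantified with equalised channel sums. Results are log-two fold changes in thermal stability compared with solvent controls, from duplicates.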

[1] = compound: CCCS(=O)(=O)Nc1ccc(F)c(C(=O)c2c[nH]c3ncc(Cl)cc23)c1F
Summary of the method: as §1

[2] = compound: CC[C@@H]1C(=O)N(C)c2cnc(Nc3ccc(C(=O)NC4CCN(C)CC4)cc3OC)nc2N1C1CCCC1
Summary of the method: as §1

volasertib = compound: CC[C@@H]1C(=O)N(C)c2cnc(Nc3ccc(C(=O)N[C@H]4CC[C@H](N5CCN(CC6CC6)CC5)CC4)cc3OC)nc2N1C(C)C [volasertib]
Summary of the method: as §1

[3] = compound: CCn1c(C(=O)N(C2CC2)C2CC2)cc2c3c(ncn3C)c(Nc3cc(C)n(C)n3)nc21
Summary of the method: as §1

[4] = compound: CCn1cc(-c2ccnc3[nH]c(-c4cccc(CN(C)C)c4)cc23)c(-c2ccc(NC(=O)N(C)C)cc2)n1
Summary of the method: as §1

[5] = compound: CN1CCC(CNc2ccc3ncc(-c4cccc(OC(F)(F)F)c4)n3n2)CC1
Summary of the method: as §1

saracatinib = compound: CN1CCN(CCOc2cc(OC3CCOCC3)c3c(Nc4c(Cl)ccc5c4OCO5)ncnc3c2)CC1 [saracatinib]
Summary of the method: as §1

sotrastaurin = compound: CN1CCN(c2nc(C3=C(c4c[nH]c5ccccc45)C(=O)NC3=O)c3ccccc3n2)CC1 [sotrastaurin]
Summary of the method: as §1

alvocidib = compound: CN1CC[C@H](c2c(O)cc(O)c3c(=O)cc(-c4ccccc4Cl)oc23)[C@H](O)C1 [alvocidib]
Summary of the method: as §1

Tubastatin A = compound: CN1CCc2c(c3ccccc3n2Cc2ccc(C(=O)NO)cc2)C1 [Tubastatin A]
Summary of the method: as §1

[6] = compound: CNC(=O)C1=CC=CC=C1NC2=NC(=NC=C2Cl)NC3=C(C=C(C=C3)N4CCOCC4)OC
Summary of the method: as §1

defactinib = compound: CNC(=O)c1ccc(Nc2ncc(C(F)(F)F)c(NCc3nccnc3N(C)S(C)(=O)=O)n2)cc1 [defactinib]
Summary of the method: as §1

[7] = compound: CNc1nc(-c2ccc3c(N)n[nH]c3c2)cc(N2C[C@@H](C(=O)NC3CCCCC3)CC[C@H]2C)n1
Summary of the method: as §1

encorafenib = compound: COC(=O)N[C@@H](C)CNc1nccc(-c2cn(C(C)C)nc2-c2cc(Cl)cc(NS(C)(=O)=O)c2F)n1 [encorafenib]
Summary of the method: as §1

[8] = compound: COC(=O)[C@H](CCSC)NC(=O)C1=C(C=C(C=C1)NC[C@H](CS)N)C2=CC=CC=C2
Summary of the method: as §1

alisertib = compound: COc1cc(Nc2ncc3c(n2)-c2ccc(Cl)cc2C(c2c(F)cccc2OC)=NC3)ccc1C(=O)O [alisertib]
Summary of the method: as §1

[9] = compound: COc1cc2nc(-c3cc(F)ccc3O)nc(N[C@@H]3CNC[C@H]3C(C)(C)O)c2cc1OC
Summary of the method: as §1

gefitinib = compound: COc1cc2ncnc(Nc3ccc(F)c(Cl)c3)c2cc1OCCCN1CCOCC1 [gefitinib]
Summary of the method: as §1

barasertib = compound: CCN(CCCOc1ccc2c(Nc3cc(CC(=O)Nc4cccc(F)c4)[nH]n3)ncnc2c1)CCOP(=O)(O)O [barasertib]
Summary of the method: as §1

Target	log2 fold change (vemurafenib)	log2 fold change [1]	log2 fold change [2]	log2 fold change (volasertib)	log2 fold change [3]	log2 fold change [4]	log2 fold change [5]	log2 fold change (saracatinib)	log2 fold change (sotrastaurin)	log2 fold change (alvocidib)	log2 fold change (Tubastatin A)	log2 fold change [6]	log2 fold change (defactinib)	log2 fold change [7]	log2 fold change (encorafenib)	log2 fold change [8]	log2 fold change (alisertib)	log2 fold change [9]	log2 fold change (gefitinib)	log2 fold change (barasertib)
CBLL1 (UniProt Q75N03)	inactive: 0.014	inactive: 0.054	inactive: 0.05	inactive: -0.041	inactive: -0.006	inactive: 0.076	inactive: 0.086	inactive: 0.084	inactive: -0.084	inactive: 0.029	inactive: -0.005	inactive: 0.036	inactive: 0.047	inactive: 0.029	inactive: -0.036	inactive: 0.016	inactive: 0.075	inactive: 0.034	inactive: -0.093	–
CASS4 (UniProt Q9NQ75)	inactive: 0.118	–	inactive: 0.052	–	inactive: 0.023	inactive: 0.084	inactive: 0.097	inactive: 0.073	inactive: -0.099	inactive: -0.045	inactive: -0.069	inactive: -0.046	inactive: -0.025	inactive: 0.085	inactive: -0.186	inactive: -0.077	inactive: 0.029	–	inactive: -0.086	–
CCND2 (UniProt P30279)	–	inactive: 0.069	–	inactive: -0.032	inactive: 0.088	–	–	inactive: 0.051	inactive: 0.066	–	inactive: 0	inactive: -0.104	–	inactive: -0.011	–	–	inactive: 0.096	inactive: 0.129	inactive: 0.141	inactive: -0.175
CD53 (UniProt P19397)	inactive: 0.05	inactive: -0.073	inactive: -0.035	inactive: -0.033	inactive: 0.004	inactive: -0.145	inactive: 0.095	–	inactive: 0.053	inactive: 0.009	inactive: -0.011	inactive: 0.04	inactive: -0.016	–	inactive: 0.082	inactive: -0.059	inactive: 0.041	inactive: 0.03	inactive: 0.085	inactive: 0.027
CBFB (UniProt Q13951)	–	inactive: 0.057	inactive: -0.015	inactive: 0.013	inactive: 0.041	inactive: 0.028	inactive: -0.05	inactive: 0.009	inactive: -0.038	inactive: -0.002	inactive: 0.018	inactive: -0.012	–	inactive: -0.019	inactive: -0.015	inactive: -0.017	inactive: 0.002	inactive: -0.018	inactive: -0.028	inactive: 0.045
CCDC85B (UniProt Q15834)	inactive: -0.317	inactive: 0.04	inactive: 0.086	inactive: 0.345	inactive: 0.007	inactive: 0.126	inactive: -0.01	inactive: 0.163	inactive: -0.035	inactive: 0.016	inactive: 0.016	inactive: 0.217	inactive: 0.183	inactive: -0.08	inactive: 0.255	inactive: -0.481	–	active: -0.508	–	inactive: -0.047
CCP110 (UniProt O43303)	inactive: -0.202	–	inactive: -0.141	–	inactive: -0.022	–	–	inactive: -0.06	inactive: 0.005	–	inactive: -0.045	inactive: -0.115	inactive: 0.181	inactive: 0.008	inactive: 0.075	inactive: 0.125	–	–	–	inactive: 0.07
CCT6B isoform 3 (UniProt Q92526)	inactive: 0.007	inactive: 0.01	–	inactive: 0.122	–	–	–	inactive: 0.082	–	–	–	–	inactive: -0.007	inactive: 0.315	–	–	–	inactive: 0.229	–	–
CBFA2T2 isoform 4 (UniProt O43439)	inactive: 0.106	inactive: 0.215	inactive: 0.058	inactive: -0.127	inactive: 0.039	inactive: -0.084	inactive: 0.109	inactive: 0.032	inactive: -0.032	inactive: 0.003	inactive: -0.146	inactive: 0.061	inactive: -0.124	inactive: 0.236	inactive: 0.091	inactive: 0.172	inactive: -0.089	inactive: -0.09	inactive: -0.066	–
CCDC136 isoform 4 (UniProt Q96JN2)	inactive: -0.017	–	inactive: 0.07	–	–	inactive: 0.082	inactive: -0.027	inactive: 0.168	inactive: -0.018	inactive: 0.136	–	inactive: 0.023	inactive: 0.005	inactive: 0.061	inactive: -0.018	inactive: 0.055	–	–	–	–
CASP7 isoform 3 (UniProt P55210)	–	inactive: -0.117	inactive: -0.148	inactive: -0.049	inactive: -0.119	–	–	inactive: 0.056	inactive: -0.091	–	inactive: -0.051	inactive: -0.016	–	inactive: -0.059	inactive: 0.16	active: 0.379	inactive: -0.058	inactive: 0.079	inactive: 0.108	inactive: 0.059
CCT6B (UniProt Q92526)	–	inactive: 0.016	–	inactive: 0.012	–	inactive: -0.052	inactive: 0.116	–	–	inactive: 0.117	–	–	–	–	–	–	–	inactive: 0.094	–	inactive: 0.131
CCDC85C (UniProt A6NKD9)	inactive: -0.039	inactive: -0.025	inactive: -0.054	inactive: -0.004	–	inactive: -0.108	inactive: 0.072	inactive: 0.012	inactive: 0.014	inactive: 0	–	–	inactive: -0.003	inactive: 0.036	inactive: -0.053	inactive: -0.103	inactive: -0.039	inactive: -0.08	inactive: -0.089	inactive: 0.008
CD68 (UniProt P34810)	–	–	inactive: -0.282	–	–	inactive: -0.025	inactive: -0.011	–	inactive: -0.157	inactive: -0.097	–	inactive: 0.186	–	–	inactive: 0.515	inactive: -0.504	–	–	–	–
CCND3 (UniProt P30281)	–	–	inactive: -0.056	–	inactive: -0.112	inactive: -0.116	inactive: 0.075	inactive: 0.086	inactive: 0.016	inactive: 0.144	inactive: -0.001	inactive: 0.024	–	inactive: 0.037	inactive: 0.081	inactive: -0.128	inactive: 0.073	–	inactive: 0.201	inactive: 0.014
CASC1 (UniProt Q6TDU7)	–	–	–	–	inactive: -0.217	inactive: 0.034	inactive: 0.006	–	–	inactive: -0.023	inactive: 0.317	–	–	–	–	–	–	–	–	inactive: 1.04
CD276 (UniProt Q5ZPR3)	–	–	–	–	inactive: 0.06	inactive: 0.12	inactive: 0.033	–	–	inactive: 0.25	inactive: -0.075	inactive: 0.076	–	–	–	–	–	–	–	–
CBX2 (UniProt Q14781)	–	inactive: 0.041	–	inactive: 0.017	–	–	–	–	–	–	–	–	–	–	–	–	inactive: -0.068	inactive: 0.142	inactive: -0.035	–
CCNL1 (UniProt Q9UK58)	–	inactive: 0.078	inactive: 0	inactive: -0.017	–	inactive: -0.21	inactive: 0.021	–	inactive: -0.035	inactive: 0.133	–	–	–	–	inactive: 0.087	inactive: 0.075	inactive: 0.041	inactive: -0.086	inactive: -0.096	–
CCAR2 (UniProt G3V119)	–	inactive: 0.087	–	inactive: -0.074	–	–	–	–	–	–	–	–	–	–	–	–	–	inactive: -0.032	–	–
CCDC167 (UniProt Q9P0B6)	–	–	–	–	–	–	–	–	inactive: -0.086	–	–	inactive: 0.064	–	–	–	–	inactive: -0.1	–	inactive: -0.011	inactive: -0.316
CASP10 isoform 2 (UniProt Q92851)	–	–	inactive: -0.166	–	inactive: 0.187	–	–	inactive: 0.004	–	–	inactive: -0.204	–	–	inactive: -0.158	inactive: 0.002	inactive: 0.084	–	–	–	–
CCDC138 (UniProt Q96M89)	–	–	–	–	–	–	–	–	–	–	–	–	–	–	–	–	inactive: 0.054	–	inactive: 0.066	–
CD109 (UniProt Q6YHK3)	–	–	–	–	–	inactive: 0.205	inactive: -0.384	–	–	inactive: -0.077	–	–	–	–	–	–	–	–	–	–
CD79B isoform 3 (UniProt P40259)	–	–	–	–	–	–	–	inactive: -1.38	–	–	–	–	–	inactive: 0.221	–	–	–	–	–	–
CCT8 (UniProt H7C4C8)	–	–	–	–	inactive: -0.341	–	–	–	inactive: 0.068	–	inactive: 0.171	–	–	–	–	–	inactive: -0.09	–	inactive: -0.248	–

Whole records from above. Values in the order: log2 fold change (vemurafenib) | log2 fold change [1] | log2 fold change [2] | log2 fold change (volasertib) | log2 fold change [3] | log2 fold change [4] | log2 fold change [5] | log2 fold change (saracatinib) | log2 fold change (sotrastaurin) | log2 fold change (alvocidib) | log2 fold change (Tubastatin A) | log2 fold change [6] | log2 fold change (defactinib) | log2 fold change [7] | log2 fold change (encorafenib) | log2 fold change [8] | log2 fold change (alisertib) | log2 fold change [9] | log2 fold change (gefitinib) | log2 fold change (barasertib)
CBFB (UniProt Q13951) reads – | inactive: 0.057 | inactive: -0.015 | inactive: 0.013 | inactive: 0.041 | inactive: 0.028 | inactive: -0.05 | inactive: 0.009 | inactive: -0.038 | inactive: -0.002 | inactive: 0.018 | inactive: -0.012 | – | inactive: -0.019 | inactive: -0.015 | inactive: -0.017 | inactive: 0.002 | inactive: -0.018 | inactive: -0.028 | inactive: 0.045
CCND2 (UniProt P30279) reads – | inactive: 0.069 | – | inactive: -0.032 | inactive: 0.088 | – | – | inactive: 0.051 | inactive: 0.066 | – | inactive: 0 | inactive: -0.104 | – | inactive: -0.011 | – | – | inactive: 0.096 | inactive: 0.129 | inactive: 0.141 | inactive: -0.175
